PubChem BioAssay AID1259308, NCATS – 2017
In all, the deposit lists about 59,000 reagents; shown is an unselected part. About 1,510 of all reagents (2.6%) were called active. 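Calls use total luciferase alone and ignore viability, so some active siRNAs may act by altering cell number.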 The numbers tell different reagents against one gene apart. Not all columns of the deposit are shown.

Assay: 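Knock-downs that increase output of a recombinant reporter protein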 (primary screen)
System: human HEK293 embryonic kidney cells stably expressing firefly luciferase (HEK-CMV-Luc2-Hygro)
Knock-down reagent: single siRNA against human genes, 0.8 pmol siRNA per well
Duration: 72 h
Measured: 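Luciferase light (ONE-Glo) measured on one replicate plate set and viability (CellTiter-Glo) on the other, scaled to a negative control siRNA, with robust z-scores and luciferase per cell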
Reading the numbers: total luciferase, z-score and total luciferase, % of control: higher = more reporter protein produced
Call rule: 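An siRNA counts as active if its total luciferase robust z-score exceeds 3; genes with two or more such siRNAs out of three were retested with fresh siRNAs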
Meaning of the calls: active = raised luciferase; inactive = no rise

| Gene | siRNA no. | total luciferase, z-score | total luciferase, % of control | outcome |
| --- | --- | --- | --- | --- |
| PLPBP | 1 | 0.573 | 93.3 | inactive |
| PLPBP | 2 | -0.411 | 73.7 | inactive |
| PLPBP | 3 | -2.14 | 39.3 | inactive |
| RPS12P22 | 1 | -2.65 | 29.2 | inactive |
| RPS12P22 | 2 | -0.723 | 67.5 | inactive |
| RPS12P22 | 3 | -2.84 | 25.4 | inactive |
| CFL2 | 1 | -0.845 | 65.1 | inactive |
| CFL2 | 2 | 0.218 | 86.2 | inactive |
| CFL2 | 3 | 0.0624 | 83.1 | inactive |
| OPN4 | 1 | -0.0946 | 80 | inactive |
| OPN4 | 2 | -0.731 | 67.4 | inactive |
| OPN4 | 3 | -0.213 | 77.6 | inactive |
| SLC30A7 | 1 | -0.39 | 74.1 | inactive |
| SLC30A7 | 2 | 0.409 | 90 | inactive |
| SLC30A7 | 3 | 1.57 | 113 | inactive |
| ASNS | 1 | -2.93 | 23.5 | inactive |
| ASNS | 2 | -3.37 | 14.8 | inactive |
| ASNS | 3 | -2.98 | 22.5 | inactive |

Targets listed so far whose target name starts with R or r:
| Gene | siRNA no. | total luciferase, z-score | total luciferase, % of control | outcome |
| --- | --- | --- | --- | --- |
| RPS12P22 | 1 | -2.65 | 29.2 | inactive |
| RPS12P22 | 2 | -0.723 | 67.5 | inactive |
| RPS12P22 | 3 | -2.84 | 25.4 | inactive |

The list goes on:
| Gene | siRNA no. | total luciferase, z-score | total luciferase, % of control | outcome |
| --- | --- | --- | --- | --- |
| SENP8 | 1 | 0.0472 | 82.8 | inactive |
| SENP8 | 2 | 1 | 102 | inactive |
| SENP8 | 3 | 0.709 | 96 | inactive |
| CDC27P6 | 1 | 0.308 | 88 | inactive |
| CDC27P6 | 2 | 0.725 | 96.3 | inactive |
| CDC27P6 | 3 | -0.976 | 62.5 | inactive |
| ZNF41 | 1 | 2.95 | 141 | inactive |
| ZNF41 | 2 | -0.408 | 73.8 | inactive |
| ZNF41 | 3 | -0.408 | 73.8 | inactive |
| MS4A15 | 1 | 2.48 | 131 | inactive |
| MS4A15 | 2 | 4.28 | 167 | active |
| MS4A15 | 3 | 0.698 | 95.8 | inactive |
| CFAP61 | 1 | -0.272 | 76.5 | inactive |
| CFAP61 | 2 | -1.54 | 51.3 | inactive |
| CFAP61 | 3 | -1.39 | 54.2 | inactive |
| TMPRSS6 | 1 | 1.19 | 106 | inactive |
| TMPRSS6 | 2 | 0.999 | 102 | inactive |
| TMPRSS6 | 3 | -0.305 | 75.8 | inactive |
| HTT | 1 | -0.66 | 68.8 | inactive |
| HTT | 2 | -2.03 | 41.5 | inactive |
| HTT | 3 | 2.62 | 134 | inactive |
